These are yes or no findings as the source states them, for the method shown. Binding seen in cells or lysates may run through a third protein. Some binding calls cover weakened binding; strength is not graded here. Where a sequence is shown, tags or fusion partners need not be part of it. Values belong to the molecule of their own block, whether it stands above or below them.
Key:
Assay in all cases: split reporter
[1] = target: T1, RGS1-nLUC (Arabidopsis thaliana) (UniProt Q8H1F2)
T1 sequence: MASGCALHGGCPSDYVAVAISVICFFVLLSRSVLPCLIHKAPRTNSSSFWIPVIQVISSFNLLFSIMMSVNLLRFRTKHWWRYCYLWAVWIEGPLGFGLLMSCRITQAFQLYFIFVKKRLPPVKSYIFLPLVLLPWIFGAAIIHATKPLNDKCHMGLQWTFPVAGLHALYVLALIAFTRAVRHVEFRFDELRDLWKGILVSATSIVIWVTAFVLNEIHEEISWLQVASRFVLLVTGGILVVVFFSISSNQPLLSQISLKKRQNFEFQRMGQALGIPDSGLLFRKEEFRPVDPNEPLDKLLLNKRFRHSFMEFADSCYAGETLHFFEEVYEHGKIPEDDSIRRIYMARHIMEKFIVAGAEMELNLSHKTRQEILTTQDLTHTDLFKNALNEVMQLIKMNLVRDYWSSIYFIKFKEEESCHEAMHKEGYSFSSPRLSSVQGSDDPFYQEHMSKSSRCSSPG

By UniProt entry, the sequences of proteins in these tests, tags left out.
UniProt Q9FX32: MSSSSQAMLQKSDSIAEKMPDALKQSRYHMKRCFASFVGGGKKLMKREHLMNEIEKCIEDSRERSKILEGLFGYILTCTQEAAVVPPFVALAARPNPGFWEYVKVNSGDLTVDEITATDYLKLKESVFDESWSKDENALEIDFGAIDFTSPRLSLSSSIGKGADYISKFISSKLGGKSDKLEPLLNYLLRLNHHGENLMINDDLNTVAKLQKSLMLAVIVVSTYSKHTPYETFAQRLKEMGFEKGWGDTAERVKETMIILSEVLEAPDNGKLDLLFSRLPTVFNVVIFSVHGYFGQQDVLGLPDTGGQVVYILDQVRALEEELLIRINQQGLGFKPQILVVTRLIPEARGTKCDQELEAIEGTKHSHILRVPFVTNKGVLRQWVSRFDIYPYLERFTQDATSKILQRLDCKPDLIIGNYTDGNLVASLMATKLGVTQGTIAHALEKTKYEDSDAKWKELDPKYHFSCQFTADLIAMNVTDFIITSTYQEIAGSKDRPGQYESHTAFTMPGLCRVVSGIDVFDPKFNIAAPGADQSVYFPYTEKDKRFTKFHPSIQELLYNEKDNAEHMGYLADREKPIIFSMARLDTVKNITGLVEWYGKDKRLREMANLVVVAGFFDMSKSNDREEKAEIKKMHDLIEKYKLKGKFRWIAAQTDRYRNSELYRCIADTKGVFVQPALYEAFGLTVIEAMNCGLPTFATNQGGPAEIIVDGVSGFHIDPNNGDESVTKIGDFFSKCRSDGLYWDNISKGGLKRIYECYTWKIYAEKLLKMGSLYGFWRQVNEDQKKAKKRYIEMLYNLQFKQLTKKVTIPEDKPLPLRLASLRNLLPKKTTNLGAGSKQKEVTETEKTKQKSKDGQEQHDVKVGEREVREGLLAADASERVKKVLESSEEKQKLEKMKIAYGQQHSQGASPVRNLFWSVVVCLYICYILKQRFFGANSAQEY
UniProt P49040: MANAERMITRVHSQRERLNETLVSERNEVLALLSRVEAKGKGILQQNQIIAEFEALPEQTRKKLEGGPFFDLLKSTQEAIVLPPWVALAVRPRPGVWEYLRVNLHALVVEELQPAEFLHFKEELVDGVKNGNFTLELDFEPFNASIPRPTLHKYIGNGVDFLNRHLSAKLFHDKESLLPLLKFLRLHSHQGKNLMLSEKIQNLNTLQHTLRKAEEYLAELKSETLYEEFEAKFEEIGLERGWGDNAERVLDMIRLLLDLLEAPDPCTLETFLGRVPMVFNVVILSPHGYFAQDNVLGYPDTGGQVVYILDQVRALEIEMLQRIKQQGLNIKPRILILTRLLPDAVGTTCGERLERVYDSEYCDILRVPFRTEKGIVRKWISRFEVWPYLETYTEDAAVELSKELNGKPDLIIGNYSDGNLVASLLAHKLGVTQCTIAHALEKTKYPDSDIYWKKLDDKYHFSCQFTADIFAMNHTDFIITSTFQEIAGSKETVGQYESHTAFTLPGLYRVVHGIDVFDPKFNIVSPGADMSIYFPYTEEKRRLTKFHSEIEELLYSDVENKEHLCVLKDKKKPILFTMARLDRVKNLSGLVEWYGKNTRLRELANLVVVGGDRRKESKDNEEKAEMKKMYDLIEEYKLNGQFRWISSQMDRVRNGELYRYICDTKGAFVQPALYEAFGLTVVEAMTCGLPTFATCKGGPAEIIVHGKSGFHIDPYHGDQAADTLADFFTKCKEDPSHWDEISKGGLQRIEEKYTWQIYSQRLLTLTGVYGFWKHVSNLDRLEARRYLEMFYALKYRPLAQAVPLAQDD
UniProt Q9LXL5: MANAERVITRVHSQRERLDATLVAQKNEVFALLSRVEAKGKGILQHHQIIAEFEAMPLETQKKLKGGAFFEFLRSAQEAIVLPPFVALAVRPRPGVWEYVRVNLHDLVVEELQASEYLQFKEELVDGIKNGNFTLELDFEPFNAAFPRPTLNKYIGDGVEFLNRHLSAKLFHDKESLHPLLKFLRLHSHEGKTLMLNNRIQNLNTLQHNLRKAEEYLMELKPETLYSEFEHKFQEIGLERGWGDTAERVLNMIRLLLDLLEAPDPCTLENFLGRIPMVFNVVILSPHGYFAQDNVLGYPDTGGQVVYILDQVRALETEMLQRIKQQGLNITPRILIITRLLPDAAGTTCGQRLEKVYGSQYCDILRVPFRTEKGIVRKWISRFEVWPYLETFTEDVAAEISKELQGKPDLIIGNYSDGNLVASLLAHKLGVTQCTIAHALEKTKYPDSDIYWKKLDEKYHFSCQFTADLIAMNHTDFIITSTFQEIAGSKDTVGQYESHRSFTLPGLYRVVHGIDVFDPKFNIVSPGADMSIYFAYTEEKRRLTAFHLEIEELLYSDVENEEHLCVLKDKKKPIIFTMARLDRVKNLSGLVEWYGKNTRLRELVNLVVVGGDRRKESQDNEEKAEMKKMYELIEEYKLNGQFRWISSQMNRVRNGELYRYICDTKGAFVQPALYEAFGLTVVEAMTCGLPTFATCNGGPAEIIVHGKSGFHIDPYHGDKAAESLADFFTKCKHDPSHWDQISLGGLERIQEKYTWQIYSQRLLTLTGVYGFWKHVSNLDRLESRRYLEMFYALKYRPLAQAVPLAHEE
UniProt Q9M111: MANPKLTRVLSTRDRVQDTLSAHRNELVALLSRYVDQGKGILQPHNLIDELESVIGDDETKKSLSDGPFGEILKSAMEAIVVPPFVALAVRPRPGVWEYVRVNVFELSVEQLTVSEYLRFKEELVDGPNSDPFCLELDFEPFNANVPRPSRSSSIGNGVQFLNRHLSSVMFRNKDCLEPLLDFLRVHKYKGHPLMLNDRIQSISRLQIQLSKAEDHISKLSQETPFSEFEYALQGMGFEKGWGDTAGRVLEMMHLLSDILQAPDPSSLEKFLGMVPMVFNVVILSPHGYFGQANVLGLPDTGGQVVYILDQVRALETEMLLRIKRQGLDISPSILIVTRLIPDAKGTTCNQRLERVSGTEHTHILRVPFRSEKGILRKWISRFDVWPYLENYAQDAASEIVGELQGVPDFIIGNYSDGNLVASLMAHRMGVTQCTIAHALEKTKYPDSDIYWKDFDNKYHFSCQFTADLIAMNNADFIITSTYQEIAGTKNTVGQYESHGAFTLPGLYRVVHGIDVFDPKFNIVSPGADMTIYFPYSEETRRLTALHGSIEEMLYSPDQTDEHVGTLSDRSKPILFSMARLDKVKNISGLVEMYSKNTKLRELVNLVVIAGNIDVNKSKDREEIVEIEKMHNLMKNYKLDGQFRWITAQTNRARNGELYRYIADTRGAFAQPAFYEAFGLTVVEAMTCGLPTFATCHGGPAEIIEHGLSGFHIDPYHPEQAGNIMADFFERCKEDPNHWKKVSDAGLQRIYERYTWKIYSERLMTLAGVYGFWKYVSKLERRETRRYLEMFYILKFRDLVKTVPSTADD

[2] = target: T2, RGS1-nYFP (Arabidopsis thaliana) (UniProt Q8H1F2)
T2 sequence: T1 sequence

[3] = target: T3, RGS1-HiBiT-nLUC (wild type) (Arabidopsis thaliana) (UniProt Q8H1F2)
T3 sequence: T1 sequence

[4] = target: T4, AGB1-nLUC (AGG1) (Arabidopsis thaliana) (UniProt P49177+Q9FDX9)
T4 sequence 1: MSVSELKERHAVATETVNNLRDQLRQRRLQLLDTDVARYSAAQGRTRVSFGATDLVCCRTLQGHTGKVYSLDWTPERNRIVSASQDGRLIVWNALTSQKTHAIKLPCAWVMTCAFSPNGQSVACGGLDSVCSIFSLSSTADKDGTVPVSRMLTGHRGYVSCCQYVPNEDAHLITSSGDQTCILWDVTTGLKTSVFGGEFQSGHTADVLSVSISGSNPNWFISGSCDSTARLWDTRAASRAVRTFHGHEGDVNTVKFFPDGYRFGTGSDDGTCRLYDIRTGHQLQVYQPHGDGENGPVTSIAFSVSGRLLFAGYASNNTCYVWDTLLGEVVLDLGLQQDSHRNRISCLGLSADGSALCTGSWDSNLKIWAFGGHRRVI
T4 sequence 2: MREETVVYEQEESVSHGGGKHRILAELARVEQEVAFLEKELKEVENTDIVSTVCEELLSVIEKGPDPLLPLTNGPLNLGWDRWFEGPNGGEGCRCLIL

Molecule: cLUC-SUS6 (from UniProt Q9FX32 1-942) (enzyme)
binding [1]: no binding

Molecule: cYFP-HA-tagged SUS1 (from UniProt P49040 1-808) (enzyme)
binding [2]: binds

Molecule: cLUC-SUS1 (from UniProt P49040 1-808) (enzyme)
binding [3]: binds
binding [1]: binds

B2: cLUC-GPA1 (protein, UniProt P18064 1-383)
chain: MGLLCSRSRHHTEDTDENTQAAEIERRIEQEAKAEKHIRKLLLLGAGESGKSTIFKQIKLLFQTGFDEGELKSYVPVIHANVYQTIKLLHDGTKEFAQNETDSAKYMLSSESIAIGEKLSEIGGRLDYPRLTKDIAEGIETLWKDPAIQETCARGNELQVPDCTKYLMENLKRLSDINYIPTKEDVLYARVRTTGVVEIQFSPVGENKKSGEVYRLFDVGGQRNERRKWIHLFEGVTAVIFCAAISEYDQTLFEDEQKNRMMETKELFDWVLKQPCFEKTSFMLFLNKFDIFEKKVLDVPLNVCEWFRDYQPVSSGKQEIEHAYEFVKKKFEELYYQNTAPDRVDRVFKIYRTTALDQKLVKKTFKLVDETLRRRNLLEAGLL
binding [4]: binds
binding [3]: binds
binding [1]: binds

B5: RGS1-nLUC (protein, UniProt Q8H1F2 1-459)
chain: T1 sequence
binding [1]: binds

Results, then the molecule that gave them:

binding [1]: binds
Molecule: cLUC-SUS4 (from UniProt Q9LXL5 1-808) (enzyme)

binding [1]: binds
Molecule: cLUC-SUS3 (from UniProt Q9M111 1-809) (enzyme)

binding [2]: binds
B1: cYFP-HA-tagged GPA1 (protein, UniProt P18064 1-383)
chain: B2 chain

binding [2]: binds
B3: cYFP-HA-tagged AGB1 (AGG1) (complex, UniProt P49177 1-377; Q9FDX9 1-98)
chain 1: T4 sequence 1
chain 2: T4 sequence 2

binding [3]: binds
binding [1]: binds
B4: cLUC-AGB1 (AGG1) (complex, UniProt P49177 1-377; Q9FDX9 1-98)
chain 1: T4 sequence 1
chain 2: T4 sequence 2

Reference: paper doi:10.1101/2025.09.10.672744
